# Test results published in PubChem BioAssay AID445 (National Center for Advancing Translational Sciences (NCATS), 2006).
# Some of the results follow. The main result of the screen is listed elsewhere. These columns were measured beside it and carry no call. Compounds called inactive in the main read-out are mostly missing here. Potencies come from curve fits of mixed quality, noted in brackets.
# Test: IkB Signaling
# Details: ABC-DLBCL IkBa-CBG/CBR dual luciferase ratio (green luciferase fused to IkBa over red control in OCI-Ly3 lymphoma cells), 4 h
# Procedure, shortened: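 Curves were fitted separately to fusion (green), unfused (red) and ratio luminescence, then classed by r2, magnitude and activity. Cells: OCI-Ly3, 4 h compound plus doxycycline at 37C; 10 uM MG-132 defined full response.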
# [1] = measured here: control luc red channel unless noted
structure (smiles),measurement,setting,value
CCC(=O)N1CCc2cc(Br)cc(S(=O)(=O)N3CCCC(C(=O)Nc4ccc(OC)c(Cl)c4)C3)c21 (stereo not drawn),AC50,[1],"0.398 µM [falling, full curve]"
CCC(C)NC(=O)c1cnn(-c2ccc(Cl)cc2)c1C1CCN(C(=O)OC(C)(C)C)CC1 (stereo not drawn),AC50,[1],"15.8 µM [falling, partial curve]"
Cc1ccn2c(Nc3ccc4c(c3)OCCO4)c(-c3ccc(Cl)s3)nc2c1,AC50,[1],"3.16 µM [falling, partial curve]"
CN(C1CCCCC1)S(=O)(=O)c1ccc2c(c1)c(=O)c(C(=O)NCCc1ccccc1)cn2C,AC50,[1],"39.8 µM [falling, single point]"
c1nc2sc3c(c2c2nnnn12)CCCC3,AC50,[1],"31.6 µM [falling, partial curve]"
CCCCCC(=O)N(O)C1CC(=O)N(c2ccccc2)C1=O (stereo not drawn),AC50,[1],"12.6 µM [falling, partial curve]"
COc1ccc(C)cc1N(C)C(=O)c1c(C)oc2ncnc(N3CCOCC3)c12,AC50,[1],"39.8 µM [falling, single point]"
Cc1nn(C)c(C)c1S(=O)(=O)N1CCCC(C(=O)N2CCN(c3ccc(Cl)cc3)CC2)C1 (stereo not drawn),AC50,[1],"7.94 µM [falling, partial curve]"
CN(c1ccc(Cl)cc1)S(=O)(=O)c1nnc(NC(=O)C2CCCCC2)s1,AC50,[1],"20 µM [falling, single point]"
COc1cc(C(=O)Oc2c(Sc3ccc(C)cc3)c(C)nn2-c2ccccc2)cc(OC)c1OC,AC50,[1],"10 µM [falling, partial curve]"
CCOc1ccccc1NC(=O)c1c(NC(=O)c2ccccc2C)sc2c1CCC(C)C2 (stereo not drawn),AC50,[1],"12.6 µM [falling, partial curve]"
COC(=O)c1c(C)sc(-c2c(-c3ccc4c(c3)OCCO4)[nH]c3c2c(=O)n(C)c(=O)n3C)c1O,AC50,measured here: IkB-luc green channel,"39.8 µM [rising, single point]"
same,AC50,measured here: control luc red channel,"2 µM [falling, partial curve]"
COc1ccccc1-c1cc(C(=O)Nc2cc(OC)c(OC)c(OC)c2)no1,AC50,[1],"15.8 µM [falling, partial curve]"
CCN(CC)CCCNC(=O)c1nn(C)c2c1CSc1ccccc1-2,AC50,[1],"12.6 µM [falling, partial curve]"
CCN(CC)c1ccc(C(=O)NCc2ccc3c(c2)CCN3C(=O)c2ccc(F)cc2)cc1,AC50,[1],"7.94 µM [falling, full curve]"
COc1ccc(C(C)=O)cc1CSc1nc(NCCc2ccccc2)c2ccccc2n1,AC50,[1],"25.1 µM [falling, single point]"
COc1ccc(C(=O)NNc2ncnc3c2cnn3-c2cccc(Cl)c2)cc1OC,AC50,[1],"1.58 µM [falling, full curve]"
NC(=O)c1cc2ccc(O)cc2oc1=Nc1ccccc1,AC50,[1],"0.02 µM [falling, full curve]"
COc1ccc(NC(=O)CCc2nc3c(C)nn(-c4ccc(C)cc4)c3n(C)c2=O)cc1,AC50,[1],"25.1 µM [falling, partial curve, poor fit]"
O=C(CN1C2=NCCN2c2ccccc21)c1ccc(Br)cc1,AC50,[1],"3.98 µM [falling, full curve, poor fit]"
Cc1cccc(N(CC(=O)NCCSCc2cccc(Cl)c2)S(=O)(=O)c2ccccc2)c1C,AC50,[1],"15.8 µM [falling, partial curve]"
COc1ccc(Cl)cc1CNCCSc1nnnn1-c1ccccc1,AC50,[1],"31.6 µM [falling, single point]"
COc1ccc(C2NC(=O)N(C)C3=C2C(=O)N(c2cccc(C(=O)O)c2)C3)cc1 (stereo not drawn),AC50,[1],"31.6 µM [rising, single point]"
Cc1ccc(C)c(NC(=O)Cn2cc(C(=O)c3cccs3)c3ccccc32)c1,AC50,[1],"12.6 µM [falling, partial curve]"
CCOc1ccccc1NC(=O)C1CCCN1S(=O)(=O)c1ccc2c(c1)C(C)(C)C(=O)N2C (stereo not drawn),AC50,[1],"31.6 µM [falling, single point]"
C=CCn1c(=O)/c(=C/c2ccc(Cl)cc2)s/c1=C(/C#N)c1nnc2n1CCCCC2,AC50,[1],"15.8 µM [falling, partial curve]"
Nc1c(C(=O)Nc2ccccc2F)sc2nc3c(cc12)CCCCCC3,AC50,[1],"0.02 µM [rising, full curve]"
CCC(C(=O)NCc1ccc(OC)c(OC)c1)n1nc(C)c2c(C)n(-c3ccc(C)cc3)nc2c1=O (stereo not drawn),AC50,[1],"15.8 µM [falling, partial curve]"
COc1ccc(Cc2nc3c4cnn(-c5ccccc5F)c4ncn3n2)cc1,AC50,[1],"25.1 µM [falling, partial curve]"
COC(=O)c1cc(CSc2nnc(NC3CCCCC3)s2)oc1C,AC50,[1],"12.6 µM [falling, partial curve]"
CCc1ccccc1NC(=O)CN1CCCN(Cc2cc(C)ccc2C)S1(=O)=O,AC50,[1],"3.98 µM [falling, full curve, poor fit]"
CCc1ccc(NC(=O)CCNS(=O)(=O)c2ccc3c(c2)oc(=O)n3C)cc1,AC50,[1],"10 µM [falling, partial curve]"
COc1cccc(NS(=O)(=O)c2ccc3c(c2)N(C)C(=O)CC(=O)N3C)c1,AC50,[1],"7.94 µM [falling, partial curve]"
Nc1ccc(N2CCCCC2)cc1N1CCCCC1,AC50,[1],"39.8 µM [falling, single point]"
O=C(Nc1nccs1)C(NS(=O)(=O)c1ccc(Br)s1)c1ccccc1 (stereo not drawn),AC50,[1],"20 µM [falling, partial curve]"
O=C(Nc1ccc(Br)cc1F)N1CC=C(c2c[nH]c3ccccc23)CC1,AC50,[1],"10 µM [falling, partial curve]"
CC(CCc1ccccc1)NC(=O)CSc1n[nH]c(-c2ccc(F)cc2)n1 (stereo not drawn),AC50,[1],"15.8 µM [falling, partial curve]"
COc1ccc(CNC(=O)CN2C(=O)CCn3nc(-c4ccccc4)cc32)c(OC)c1,AC50,[1],"20 µM [falling, single point]"
COc1ccc(N2C(=O)Cc3cc(OC)c(OC)cc3C2c2ccc(F)cc2)cc1 (stereo not drawn),AC50,[1],"31.6 µM [falling, single point]"
COc1ccc(-c2nn3c(=O)cc(CN4CCN(S(=O)(=O)c5ccc(C)cc5)CC4)nc3s2)cc1,AC50,[1],"20 µM [falling, single point]"
Cc1cc(OCC(O)CN2CCN(c3cccc(Cl)c3)CC2)ccc1Cl (stereo not drawn),AC50,[1],"15.8 µM [falling, partial curve]"
COc1ccc(C(=O)Nc2ccc(S(=O)(=O)N(Cc3ccccc3)c3ccccc3)cc2)cc1,AC50,[1],"0.631 µM [falling, full curve, poor fit]"
CCOC(=O)c1cc(-c2ccc(F)cc2)n(CCC(=O)Nc2nc3ccc(OC)cc3s2)c1C,AC50,[1],"39.8 µM [falling, single point]"
COc1ccc(S(=O)(=O)N(CC(=O)Nc2cc(Cl)ccc2C)Cc2ccccc2)cc1OC,AC50,[1],"10 µM [falling, partial curve]"
CCn1nc(C)c2c(-c3ccccc3)cc(=O)n(C(C)C(=O)NCCc3ccc(OC)c(OC)c3)c21 (stereo not drawn),AC50,[1],"12.6 µM [falling, partial curve]"
O=C(OCC(=O)N1CCCCC1)c1cc2ccccc2cc1O,AC50,[1],"12.6 µM [falling, partial curve]"
COc1ccc(NCc2cc3cc4c(cc3n(CC(=O)Nc3ccc(C)c(C)c3)c2=O)OCO4)cc1,AC50,[1],"5.01 µM [falling, full curve, poor fit]"
CC(C)(C)OC(=O)N1CCC(c2c(C(=O)N3CCCCC3)cnn2-c2ccccc2Cl)CC1,AC50,[1],"15.8 µM [falling, partial curve]"
Cc1ccccc1-c1nc(CN2CCC(C(=O)N3CCN(c4ccccn4)CC3)CC2)c(C)o1,AC50,[1],"10 µM [falling, partial curve]"
COc1ccccc1OCc1nc(C#N)c(NCc2ccc(C)cc2)o1,AC50,[1],"20 µM [falling, partial curve]"
C=CC(C)Sc1nc2c(c(=O)n(C)c(=O)n2C)n1Cc1ccccc1Cl (stereo not drawn),AC50,[1],"15.8 µM [falling, partial curve]"
O=C(Nc1nccs1)c1ccc(CSc2nnnn2-c2ccccc2)cc1,AC50,[1],"5.01 µM [falling, full curve]"
COc1ccc(-c2nn(-c3ccccc3)cc2C2NC(=O)NC(C)=C2C(=O)OC(C)C)cc1Cl (stereo not drawn),AC50,[1],"25.1 µM [falling, single point]"
COc1ccc(NC(=O)N(Cc2cc3cc(OC)ccc3[nH]c2=O)CC2CCCO2)cc1 (stereo not drawn),AC50,[1],"10 µM [falling, partial curve]"
CN(Cc1ccccc1)c1ncnc2c1nnn2C,AC50,[1],"3.98 µM [rising, partial curve]"
COc1ccc(-c2nnc(SCC(=O)N(C)C3CCCCC3)o2)cc1OC,AC50,[1],"10 µM [falling, partial curve]"
COC(=O)c1sccc1S(=O)(=O)N(CC(=O)Nc1ccccc1F)c1ccccc1,AC50,[1],"15.8 µM [falling, partial curve]"
Cc1cccc(C(=O)n2nc(-c3cccnc3)nc2NCc2ccccc2)c1,AC50,[1],"25.1 µM [falling, partial curve]"
Cc1ccc(C(=O)NCCc2ccc(S(N)(=O)=O)cc2)cc1-n1cnc2cccnc21,AC50,[1],"5.01 µM [falling, partial curve]"
Cc1ccc(NC(=O)Nc2ccccc2OCc2cc(=O)n3ccccc3n2)c(Cl)c1,AC50,[1],"39.8 µM [rising, single point]"
COC(=O)c1c(NC(=O)Cc2coc3ccc(C(C)C)cc23)sc2c1CCC2,AC50,[1],"2 µM [falling, full curve]"
Cc1ccc(N=C2NC(=O)CC(C(=O)Nc3cc(C(F)(F)F)ccc3Cl)S2)cc1 (stereo not drawn),AC50,[1],"12.6 µM [falling, partial curve]"

# A stretch taken from the entries so far:
structure (smiles),measurement,setting,value
COc1ccc(NC(=O)N(Cc2cc3cc(OC)ccc3[nH]c2=O)CC2CCCO2)cc1 (stereo not drawn),AC50,[1],"10 µM [falling, partial curve]"
CN(Cc1ccccc1)c1ncnc2c1nnn2C,AC50,[1],"3.98 µM [rising, partial curve]"
COc1ccc(-c2nnc(SCC(=O)N(C)C3CCCCC3)o2)cc1OC,AC50,[1],"10 µM [falling, partial curve]"
COC(=O)c1sccc1S(=O)(=O)N(CC(=O)Nc1ccccc1F)c1ccccc1,AC50,[1],"15.8 µM [falling, partial curve]"
